Laboratory results published in publication PMC5152890 (PLoS ONE, 2016).
No constants are given. Whether binding was seen depends on the method and setting. Some results given as binding are weak or reduced against the parent protein; the word gives no strength.

Protein sequences, listed by entry. Tags and fused reporters are not part of them. Lines headed by an entry give the natural chain unless they say otherwise; changes in a name come on top. Residues count along the entry.
UniProt P17948, residues 132-226: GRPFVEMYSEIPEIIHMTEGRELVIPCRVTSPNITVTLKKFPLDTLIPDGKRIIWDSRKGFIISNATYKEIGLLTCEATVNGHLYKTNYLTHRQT

How the values were obtained:
[1] = molecular target: human VEGFR1 domain 2 (hVEGFR1d2) (human) (UniProt P17948); assay: SEC; Superdex 75 HR 10/300; 160 μM hVEGFR1d2 incubated 30 min at 18°C and eluted in 25 mM Tris-HCl pH 8.1, 250 mM NaCl, 1 mM EDTA; both purified
[2] = molecular target: human VEGFR1 domain 2 (hVEGFR1d2) (human) (UniProt P17948); assay: condition: only with EDTA (1.8 eq, 270 μM) added to the sample with cadmium; NMR titration; 1H-15N TROSY of 150 μM 15N-labelled hVEGFR1d2 with 270 μM CdCl2 after addition of EDTA (1.8 eq, 270 μM); 300 K; both purified
[3] = molecular target: human VEGFR1 domain 2 (hVEGFR1d2) (human) (UniProt P17948); assay: SAXS; hVEGFR1d2 in solution without CoCl2, after removal of all divalent metal ions (0.25 mM EDTA, dialysis against 20 mM HEPES-NaOH pH 7.0 with Chelex 100), up to 5 mg/mL, 277 K; both purified

human VEGFR1 domain 2 (hVEGFR1d2) (from UniProt P17948-2 132-226) (domain or fragment)
binding [1]: no binding (condition: with 1 mM EDTA (160 μM hVEGFR1d2)) | binding [2]: no binding | binding [3]: binds weakly
